Here are results for two substances from article PMC4786724, “NdhM Subunit Is Required for the Stability and the Function of NAD(P)H Dehydrogenase Complexes Involved in CO2 Uptake in Synechocystis sp. Strain PCC 6803* ^([image sbox.jpg])” (The Journal of Biological Chemistry, 2015).

These are yes or no findings as the source states them, for the method shown. For some assays here: Sequences can lack the tags named with a protein.

Assay [1] has as its target T1, GST-NdhM (Synechocystis sp. PCC 6803) (UniProt P74338).
T1 sequence: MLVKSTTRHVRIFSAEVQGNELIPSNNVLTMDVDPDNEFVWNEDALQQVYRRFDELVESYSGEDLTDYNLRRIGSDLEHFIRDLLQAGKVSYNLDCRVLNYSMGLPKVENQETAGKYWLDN
In words: pull-down; GST-NdhM on glutathione-Sepharose 4B resin as bait, His-tagged Ndh subunits as prey; 2 h at 4 °C in 20 mM Tris-HCl pH 7.5, 100 mM NaCl, 0.1 mM EDTA, 0.2% Triton, 10% glycerol; washed five times with 300 mM NaCl, 0.5% Nonidet P-40; eluates blotted with anti-His antibody; both purified.

In assay [2] the target is T2, NdhM bait construct in pGBKT7 (Gal4 DNA binding domain) (Synechocystis sp. PCC 6803) (UniProt P74338).
T2 sequence: T1 sequence
In words: two-hybrid; NdhM in pGBKT7 (Gal4 DNA binding domain) as bait, Ndh subunits in pGADT7 (Gal4 activation domain) as prey; S. cerevisiae AH109; growth on medium lacking Trp, Leu, His and Ade, 30 °C, 6 days.

As to NdhS-His6 (Synechocystis sp. PCC 6803), the binding result in assay [1] is “no binding”.
Regarding “NdhS prey construct in pGADT7 (Gal4 activation domain) (Synechocystis sp. PCC 6803)”, in assay [2], the binding result is listed as “no binding”.
